Laboratory results reported in the supplement of paper PMC10849652.
The list shows a part of the results.

Chains of the proteins cited; added tags and fusions are not shown. Lines headed by an entry give the natural chain unless they say otherwise; changes in a name come on top.
UniProt Q96A49: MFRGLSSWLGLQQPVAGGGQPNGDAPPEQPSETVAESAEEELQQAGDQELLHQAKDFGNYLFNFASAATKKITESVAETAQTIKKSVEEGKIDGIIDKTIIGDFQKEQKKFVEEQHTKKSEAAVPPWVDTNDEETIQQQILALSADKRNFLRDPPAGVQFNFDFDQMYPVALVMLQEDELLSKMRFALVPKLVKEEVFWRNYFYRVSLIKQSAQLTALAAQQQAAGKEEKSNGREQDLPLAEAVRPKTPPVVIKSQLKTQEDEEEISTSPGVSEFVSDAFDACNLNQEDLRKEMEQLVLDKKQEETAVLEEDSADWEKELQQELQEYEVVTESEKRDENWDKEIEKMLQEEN
UniProt Q9P2W9: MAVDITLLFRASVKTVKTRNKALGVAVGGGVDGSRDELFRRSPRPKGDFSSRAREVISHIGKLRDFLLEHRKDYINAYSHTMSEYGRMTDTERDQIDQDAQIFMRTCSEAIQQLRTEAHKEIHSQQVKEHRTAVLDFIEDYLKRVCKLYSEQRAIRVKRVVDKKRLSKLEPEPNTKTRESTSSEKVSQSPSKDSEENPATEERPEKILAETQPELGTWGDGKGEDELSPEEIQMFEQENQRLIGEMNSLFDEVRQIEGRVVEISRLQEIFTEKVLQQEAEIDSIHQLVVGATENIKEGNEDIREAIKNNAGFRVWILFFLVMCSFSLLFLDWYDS
UniProt Q86TM6, whole entry, looked up: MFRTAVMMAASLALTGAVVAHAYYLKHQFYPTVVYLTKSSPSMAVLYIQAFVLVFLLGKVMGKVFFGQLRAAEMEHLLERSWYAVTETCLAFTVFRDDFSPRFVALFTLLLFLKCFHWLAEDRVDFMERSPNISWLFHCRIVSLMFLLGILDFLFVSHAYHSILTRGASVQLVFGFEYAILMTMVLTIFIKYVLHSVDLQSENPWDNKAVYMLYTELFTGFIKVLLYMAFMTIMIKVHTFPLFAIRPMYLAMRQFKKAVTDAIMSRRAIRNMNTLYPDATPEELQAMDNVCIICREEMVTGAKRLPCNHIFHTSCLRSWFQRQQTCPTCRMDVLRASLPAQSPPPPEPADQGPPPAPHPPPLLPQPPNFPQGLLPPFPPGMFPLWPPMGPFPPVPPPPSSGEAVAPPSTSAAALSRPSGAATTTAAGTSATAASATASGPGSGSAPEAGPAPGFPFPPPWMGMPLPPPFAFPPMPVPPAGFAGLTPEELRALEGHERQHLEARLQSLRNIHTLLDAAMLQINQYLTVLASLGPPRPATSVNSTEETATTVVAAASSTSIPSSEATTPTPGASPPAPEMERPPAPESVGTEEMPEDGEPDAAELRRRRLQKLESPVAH
UniProt Q8IWZ8: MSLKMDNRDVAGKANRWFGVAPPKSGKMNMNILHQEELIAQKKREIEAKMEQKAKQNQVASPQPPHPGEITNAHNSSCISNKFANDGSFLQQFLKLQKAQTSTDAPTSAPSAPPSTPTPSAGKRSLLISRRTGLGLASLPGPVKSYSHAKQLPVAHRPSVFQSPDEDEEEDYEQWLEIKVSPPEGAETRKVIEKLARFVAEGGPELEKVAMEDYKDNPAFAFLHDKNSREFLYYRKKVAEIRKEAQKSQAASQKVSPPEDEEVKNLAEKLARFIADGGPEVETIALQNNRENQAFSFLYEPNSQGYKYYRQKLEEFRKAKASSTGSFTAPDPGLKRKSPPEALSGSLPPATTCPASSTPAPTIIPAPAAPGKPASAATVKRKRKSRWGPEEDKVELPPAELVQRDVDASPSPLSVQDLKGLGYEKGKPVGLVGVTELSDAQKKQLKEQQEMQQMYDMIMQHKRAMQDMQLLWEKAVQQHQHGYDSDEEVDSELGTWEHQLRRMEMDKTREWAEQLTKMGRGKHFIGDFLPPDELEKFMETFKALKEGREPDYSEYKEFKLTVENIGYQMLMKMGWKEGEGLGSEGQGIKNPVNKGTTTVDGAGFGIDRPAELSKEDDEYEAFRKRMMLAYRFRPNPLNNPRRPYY
UniProt P50225: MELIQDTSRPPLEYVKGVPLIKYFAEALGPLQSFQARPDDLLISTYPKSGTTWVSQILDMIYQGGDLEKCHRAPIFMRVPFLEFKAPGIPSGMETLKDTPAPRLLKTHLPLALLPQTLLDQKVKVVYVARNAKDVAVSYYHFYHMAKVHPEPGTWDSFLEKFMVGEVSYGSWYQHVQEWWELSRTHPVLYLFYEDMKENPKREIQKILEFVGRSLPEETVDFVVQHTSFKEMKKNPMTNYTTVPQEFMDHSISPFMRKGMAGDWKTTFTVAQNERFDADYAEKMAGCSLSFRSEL
UniProt Q8NBJ7: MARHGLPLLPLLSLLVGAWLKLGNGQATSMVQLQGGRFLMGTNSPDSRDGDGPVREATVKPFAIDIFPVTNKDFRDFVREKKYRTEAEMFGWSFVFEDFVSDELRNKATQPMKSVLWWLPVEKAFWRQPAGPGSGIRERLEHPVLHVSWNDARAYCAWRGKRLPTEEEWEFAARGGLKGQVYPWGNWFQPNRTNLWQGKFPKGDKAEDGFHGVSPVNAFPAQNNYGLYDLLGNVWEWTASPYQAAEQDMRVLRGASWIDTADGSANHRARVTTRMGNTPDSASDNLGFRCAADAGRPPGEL
UniProt P27105: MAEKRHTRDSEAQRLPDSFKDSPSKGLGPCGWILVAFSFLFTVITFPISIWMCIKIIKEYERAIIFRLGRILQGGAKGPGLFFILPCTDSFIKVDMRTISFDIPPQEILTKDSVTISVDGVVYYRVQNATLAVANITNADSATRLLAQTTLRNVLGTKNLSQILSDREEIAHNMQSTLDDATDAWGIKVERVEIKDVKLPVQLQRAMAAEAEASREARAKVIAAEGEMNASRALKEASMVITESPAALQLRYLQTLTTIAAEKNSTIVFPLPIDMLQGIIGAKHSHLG
UniProt P16949: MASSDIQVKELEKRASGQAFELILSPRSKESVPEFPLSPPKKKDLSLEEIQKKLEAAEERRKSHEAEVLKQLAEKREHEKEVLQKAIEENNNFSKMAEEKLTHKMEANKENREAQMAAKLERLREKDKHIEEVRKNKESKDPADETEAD
UniProt Q8N1F8: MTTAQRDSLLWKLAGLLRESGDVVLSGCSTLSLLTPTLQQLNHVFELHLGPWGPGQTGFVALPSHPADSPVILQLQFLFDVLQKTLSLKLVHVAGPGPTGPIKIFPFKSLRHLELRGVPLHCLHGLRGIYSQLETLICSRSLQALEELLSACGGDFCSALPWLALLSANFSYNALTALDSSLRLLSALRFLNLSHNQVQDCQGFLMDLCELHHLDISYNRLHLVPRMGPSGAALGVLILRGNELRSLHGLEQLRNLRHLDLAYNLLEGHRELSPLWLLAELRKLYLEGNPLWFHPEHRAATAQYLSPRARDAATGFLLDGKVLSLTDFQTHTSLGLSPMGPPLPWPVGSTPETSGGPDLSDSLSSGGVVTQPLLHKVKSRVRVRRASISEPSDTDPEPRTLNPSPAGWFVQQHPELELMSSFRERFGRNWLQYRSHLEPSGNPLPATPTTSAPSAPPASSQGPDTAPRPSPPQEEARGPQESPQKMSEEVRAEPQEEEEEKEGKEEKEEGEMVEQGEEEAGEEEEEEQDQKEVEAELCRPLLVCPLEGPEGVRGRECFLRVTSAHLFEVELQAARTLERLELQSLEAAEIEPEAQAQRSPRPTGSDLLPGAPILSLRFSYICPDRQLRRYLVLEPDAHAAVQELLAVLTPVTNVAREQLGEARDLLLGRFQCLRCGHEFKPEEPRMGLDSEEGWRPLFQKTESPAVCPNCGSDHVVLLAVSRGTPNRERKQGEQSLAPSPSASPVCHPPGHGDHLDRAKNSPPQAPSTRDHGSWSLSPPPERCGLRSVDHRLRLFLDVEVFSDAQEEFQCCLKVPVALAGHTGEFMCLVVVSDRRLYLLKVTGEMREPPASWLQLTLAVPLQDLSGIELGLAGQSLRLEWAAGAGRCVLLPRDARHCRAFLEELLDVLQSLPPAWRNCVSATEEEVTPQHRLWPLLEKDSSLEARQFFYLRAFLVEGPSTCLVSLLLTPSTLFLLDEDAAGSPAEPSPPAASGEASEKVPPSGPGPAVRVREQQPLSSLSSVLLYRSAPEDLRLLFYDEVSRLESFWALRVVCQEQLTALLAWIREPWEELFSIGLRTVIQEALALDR
UniProt P61764, whole entry, looked up: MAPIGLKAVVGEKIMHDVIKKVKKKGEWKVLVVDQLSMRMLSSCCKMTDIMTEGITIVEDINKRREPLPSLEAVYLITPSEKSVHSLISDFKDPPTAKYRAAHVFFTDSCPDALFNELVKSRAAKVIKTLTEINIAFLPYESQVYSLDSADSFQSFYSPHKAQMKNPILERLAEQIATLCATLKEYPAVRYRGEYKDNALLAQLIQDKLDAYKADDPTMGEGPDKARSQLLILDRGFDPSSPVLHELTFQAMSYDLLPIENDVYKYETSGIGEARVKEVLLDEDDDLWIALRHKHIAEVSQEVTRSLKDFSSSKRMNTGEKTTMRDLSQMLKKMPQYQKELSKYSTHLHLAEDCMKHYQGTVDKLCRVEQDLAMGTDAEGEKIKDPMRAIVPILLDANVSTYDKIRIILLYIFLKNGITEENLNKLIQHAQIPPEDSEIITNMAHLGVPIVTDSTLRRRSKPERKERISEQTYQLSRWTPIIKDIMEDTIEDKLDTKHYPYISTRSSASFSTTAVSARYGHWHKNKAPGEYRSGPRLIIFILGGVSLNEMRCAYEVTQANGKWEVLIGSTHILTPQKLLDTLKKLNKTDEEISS
UniProt O00506, whole entry, looked up: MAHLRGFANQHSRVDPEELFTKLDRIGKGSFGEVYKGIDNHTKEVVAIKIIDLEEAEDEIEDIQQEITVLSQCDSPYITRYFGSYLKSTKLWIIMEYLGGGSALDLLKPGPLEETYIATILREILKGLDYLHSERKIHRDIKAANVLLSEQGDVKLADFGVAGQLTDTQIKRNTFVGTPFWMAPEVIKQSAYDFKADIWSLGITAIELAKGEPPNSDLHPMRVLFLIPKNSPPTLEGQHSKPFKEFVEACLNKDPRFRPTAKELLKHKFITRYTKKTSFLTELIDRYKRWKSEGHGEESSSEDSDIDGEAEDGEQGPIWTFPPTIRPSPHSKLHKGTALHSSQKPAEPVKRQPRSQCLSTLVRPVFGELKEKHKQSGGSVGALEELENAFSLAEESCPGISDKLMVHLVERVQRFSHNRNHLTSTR
UniProt Q8NEM7: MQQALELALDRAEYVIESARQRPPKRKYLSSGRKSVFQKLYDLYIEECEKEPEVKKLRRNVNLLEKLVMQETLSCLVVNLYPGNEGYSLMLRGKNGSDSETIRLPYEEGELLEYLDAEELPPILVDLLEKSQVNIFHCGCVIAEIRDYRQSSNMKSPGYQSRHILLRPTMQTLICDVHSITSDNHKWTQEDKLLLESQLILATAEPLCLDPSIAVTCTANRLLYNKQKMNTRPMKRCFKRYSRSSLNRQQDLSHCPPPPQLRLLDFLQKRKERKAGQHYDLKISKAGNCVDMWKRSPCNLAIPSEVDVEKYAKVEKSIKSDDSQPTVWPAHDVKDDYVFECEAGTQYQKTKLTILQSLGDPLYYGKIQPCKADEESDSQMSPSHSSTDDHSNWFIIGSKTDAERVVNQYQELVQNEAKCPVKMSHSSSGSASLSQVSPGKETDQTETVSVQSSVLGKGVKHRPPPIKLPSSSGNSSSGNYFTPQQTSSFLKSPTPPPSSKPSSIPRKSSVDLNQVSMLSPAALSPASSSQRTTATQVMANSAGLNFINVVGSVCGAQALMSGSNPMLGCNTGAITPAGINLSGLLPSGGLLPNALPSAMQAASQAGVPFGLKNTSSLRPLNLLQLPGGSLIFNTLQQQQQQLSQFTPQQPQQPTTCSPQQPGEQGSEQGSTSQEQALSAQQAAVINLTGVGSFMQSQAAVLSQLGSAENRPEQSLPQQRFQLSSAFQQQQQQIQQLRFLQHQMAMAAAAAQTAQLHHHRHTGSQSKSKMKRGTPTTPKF
UniProt Q12846: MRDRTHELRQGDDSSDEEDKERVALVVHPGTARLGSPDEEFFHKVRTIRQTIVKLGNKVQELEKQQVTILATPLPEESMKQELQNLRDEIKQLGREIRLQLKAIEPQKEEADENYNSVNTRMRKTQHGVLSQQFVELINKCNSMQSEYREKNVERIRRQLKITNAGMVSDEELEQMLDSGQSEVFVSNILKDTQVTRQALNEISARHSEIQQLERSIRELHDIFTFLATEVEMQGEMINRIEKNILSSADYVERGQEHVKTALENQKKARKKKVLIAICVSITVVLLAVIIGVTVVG
UniProt O43752: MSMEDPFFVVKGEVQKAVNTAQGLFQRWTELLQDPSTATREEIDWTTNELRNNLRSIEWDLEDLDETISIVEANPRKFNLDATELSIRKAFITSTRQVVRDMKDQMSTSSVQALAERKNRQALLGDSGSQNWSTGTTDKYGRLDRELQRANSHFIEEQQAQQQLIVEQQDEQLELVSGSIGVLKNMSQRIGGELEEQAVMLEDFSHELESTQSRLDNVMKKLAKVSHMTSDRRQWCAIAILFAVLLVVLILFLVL
UniProt Q7Z422: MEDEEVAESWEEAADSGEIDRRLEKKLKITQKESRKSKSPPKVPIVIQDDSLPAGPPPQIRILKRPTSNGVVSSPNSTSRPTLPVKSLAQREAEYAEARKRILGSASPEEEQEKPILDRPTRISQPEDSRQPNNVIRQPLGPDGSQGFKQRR

What was measured:
Experiment in all cases: log2 fold change, soluble protein after heating vs DMSO (PISA); higher = thermal stabilisation; K562 lysate, 10 uM; active = over 0.2 and 3.5 SD of the protein, either way, in both replicates (recomputed)
nilotinib = compound: Cc1cn(-c2cc(NC(=O)c3ccc(C)c(Nc4nccc(-c5cccnc5)n4)c3)cc(C(F)(F)F)c2)cn1 [nilotinib]
Procedure, shortened: (§1)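 To prepare the extract, K562 pellets were dounce-homogenised in PBS pH 7.4 with 1 mM MgCl2, giving crude material at 1 mg/mL protein. This was treated with 10 μM compound for 30 min, then heated in aliquots for 3 min over 48°C-58°C before pooling and addition of NP-40 to 0.5% at 4°C. Centrifugation at 21,000xg for 90 min left soluble protein in the supernatant, which TMTpro 16plex LC-MS/MS quantified with equalised channel sums. Results are log-two fold changes in thermal stability compared with solvent controls, from duplicates.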

[1] = compound: Cc1nc(Nc2n[nH]c3c2CN(C(=O)N[C@H](CN(C)C)c2ccccc2)C3(C)C)c2sccc2n1
Procedure, shortened: as §1

dasatinib = compound: Cc1nc(Nc2ncc(C(=O)Nc3c(C)cccc3Cl)s2)cc(N2CCN(CCO)CC2)n1 [dasatinib]
Procedure, shortened: as §1

[2] = compound: Cc1ncc(-c2ccnc(Nc3ccc(S(C)(=O)=O)cc3)n2)n1C(C)C
Procedure, shortened: as §1

[3] = compound: Cn1cc(-c2ccc3c(c2)CCN3C(=O)Cc2cccc(C(F)(F)F)c2)c2c(N)ncnc21
Procedure, shortened: as §1

quisinostat = compound: Cn1cc(CNCC2CCN(c3ncc(C(=O)NO)cn3)CC2)c2ccccc21 [quisinostat]
Procedure, shortened: as §1

tipifarnib = compound: Cn1cncc1[C@@](N)(c1ccc(Cl)cc1)c1ccc2c(c1)c(-c1cccc(Cl)c1)cc(=O)n2C [tipifarnib]
Procedure, shortened: as §1

[4] = compound: NC(=O)Nc1cc(-c2cccc(F)c2)sc1C(=O)N[C@H]1CCCNC1
Procedure, shortened: as §1

[5] = compound: NC(=O)c1cnc(N[C@@H]2CCCC[C@@H]2N)nc1Nc1cccc(-n2nccn2)c1
Procedure, shortened: as §1

[6] = compound: NC1(c2ccc(-c3nc4ccn5c(=O)[nH]nc5c4cc3-c3ccccc3)cc2)CCC1
Procedure, shortened: as §1

[7] = compound: NCC(=O)Nc1ccc(-n2nc(C(F)(F)F)cc2-c2ccc3c(ccc4ccccc43)c2)cc1
Procedure, shortened: as §1

vorinostat = compound: O=C(CCCCCCC(=O)Nc1ccccc1)NO [vorinostat]
Procedure, shortened: as §1

silmitasertib = compound: O=C(O)c1ccc2c(c1)nc(Nc1cccc(Cl)c1)c1ccncc12 [silmitasertib]
Procedure, shortened: as §1

[8] = compound: O=C1NC(=O)C(c2cnc3ccccn23)=C1c1cn2c3c(cc(F)cc13)CN(C(=O)N1CCCCC1)CC2
Procedure, shortened: as §1

entospletinib = compound: c1cn2cc(-c3ccc4cn[nH]c4c3)nc(Nc3ccc(N4CCOCC4)cc3)c2n1 [entospletinib]
Procedure, shortened: as §1

| Target | log2 fold change (nilotinib) | log2 fold change [1] | log2 fold change (dasatinib) | log2 fold change [2] | log2 fold change [3] | log2 fold change (quisinostat) | log2 fold change (tipifarnib) | log2 fold change [4] | log2 fold change [5] | log2 fold change [6] | log2 fold change [7] | log2 fold change (vorinostat) | log2 fold change (silmitasertib) | log2 fold change [8] | log2 fold change (entospletinib) |
| --- | --- | --- | --- | --- | --- | --- | --- | --- | --- | --- | --- | --- | --- | --- | --- |
| SYAP1 (UniProt Q96A49) | inactive: 0.089 | inactive: 0.013 | inactive: 0.059 | inactive: 0.012 | inactive: -0.07 | inactive: 0.045 | inactive: -0.085 | inactive: -0.086 | inactive: -0.039 | inactive: 0.052 | inactive: -0.036 | inactive: 0.234 | inactive: -0.07 | inactive: -0.05 | inactive: 0.022 |
| STX18 (UniProt Q9P2W9) | inactive: 0.031 | inactive: -0.06 | inactive: -0.031 | inactive: 0.01 | inactive: -0.013 | inactive: -0.02 | inactive: -0.006 | inactive: 0.01 | inactive: 0.051 | inactive: -0.268 | inactive: 0 | inactive: -0.114 | inactive: 0.082 | inactive: -0.014 | inactive: -0.091 |
| SYVN1 (UniProt Q86TM6) | inactive: -0.015 | inactive: 0.052 | inactive: 0.031 | inactive: -0.065 | inactive: -0.01 | inactive: -0.029 | inactive: -0.054 | inactive: -0.011 | inactive: -0.002 | inactive: -0.011 | inactive: -0.059 | inactive: 0.086 | inactive: 0.034 | inactive: -0.01 | inactive: -0.009 |
| SUMF1 (UniProt Q8NBK3) | inactive: 0.064 | inactive: 0 | inactive: 0.056 | inactive: 0.001 | inactive: 0.052 | inactive: 0.054 | inactive: -0.055 | inactive: 0.06 | inactive: 0.043 | inactive: 0.001 | inactive: -0.056 | inactive: 0.026 | inactive: -0.026 | inactive: -0.037 | inactive: -0.113 |
| STMN4 isoform 2 (UniProt Q9H169) | inactive: 0.04 | inactive: -0.055 | inactive: 0.004 | inactive: -0.007 | inactive: 0.035 | inactive: 0.144 | inactive: 0.035 | inactive: -0.075 | inactive: 0.014 | inactive: 0.072 | inactive: -0.049 | inactive: 0.055 | inactive: 0.028 | inactive: -0.144 | inactive: -0.017 |
| SUGP1 (UniProt Q8IWZ8) | inactive: -0.078 | inactive: 0.048 | inactive: 0.015 | inactive: 0.014 | inactive: 0 | inactive: -0.028 | inactive: -0.056 | inactive: -0.024 | inactive: -0.009 | inactive: 0.011 | inactive: -0.001 | inactive: -0.014 | inactive: -0.02 | inactive: -0.024 | inactive: 0.002 |
| SULT1A1 (UniProt P50225) | inactive: 0.029 | inactive: -0.074 | inactive: 0.009 | inactive: -0.028 | inactive: -0.007 | inactive: -0.006 | inactive: -0.043 | inactive: 0.047 | inactive: 0.007 | inactive: -0.021 | inactive: 0.077 | active: -0.273 | inactive: 0.036 | inactive: -0.021 | inactive: 0.071 |
| SUMF2 (UniProt Q8NBJ7) | inactive: 0.031 | inactive: -0.038 | inactive: -0.002 | inactive: 0.045 | inactive: 0.035 | inactive: -0.008 | inactive: -0.006 | inactive: -0.011 | inactive: -0.01 | inactive: 0.01 | inactive: 0.016 | inactive: 0.033 | inactive: -0.028 | inactive: -0.023 | inactive: -0.017 |
| STOM (UniProt P27105) | inactive: 0.021 | inactive: 0.021 | inactive: 0.004 | inactive: -0.008 | inactive: 0.071 | inactive: 0.044 | inactive: -0.038 | inactive: 0.022 | inactive: 0.007 | inactive: -0.025 | inactive: -0.01 | inactive: 0.1 | inactive: -0.01 | inactive: -0.073 | inactive: 0.007 |
| STMN1 (UniProt P16949) | inactive: 0.005 | inactive: -0.026 | inactive: 0.017 | inactive: 0.012 | inactive: -0.021 | inactive: -0.018 | inactive: -0.002 | inactive: 0.016 | inactive: -0.017 | inactive: -0.041 | inactive: 0.007 | inactive: 0.097 | inactive: -0.02 | inactive: 0.027 | inactive: 0.022 |
| SUB1 (UniProt P53999) | inactive: -0.021 | inactive: 0.004 | inactive: 0.034 | inactive: -0.004 | inactive: -0.019 | inactive: 0.107 | inactive: 0.031 | inactive: -0.017 | inactive: -0.009 | inactive: -0.005 | inactive: -0.002 | inactive: 0.085 | inactive: -0.01 | inactive: 0.047 | inactive: -0.017 |
| STK11IP (UniProt Q8N1F8) | inactive: 0.065 | inactive: 0.001 | inactive: -0.053 | inactive: -0.045 | inactive: -0.016 | inactive: -0.029 | inactive: -0.033 | inactive: -0.012 | inactive: -0.014 | inactive: 0.037 | inactive: -0.017 | active: -0.254 | inactive: 0.025 | inactive: 0.008 | inactive: 0.024 |
| STXBP1 (UniProt P61764) | inactive: 0.014 | inactive: 0.022 | inactive: -0.076 | inactive: -0.033 | inactive: -0.039 | inactive: -0.041 | inactive: -0.041 | inactive: 0.039 | inactive: -0.031 | inactive: 0.01 | inactive: 0.052 | inactive: -0.039 | inactive: 0.041 | inactive: 0.012 | inactive: -0.004 |
| SYNE1 (UniProt Q8NF91) | inactive: -0.049 | inactive: -0.022 | inactive: 0.005 | inactive: 0.176 | inactive: -0.065 | inactive: -0.271 | inactive: 0.036 | inactive: 0.165 | inactive: -0.084 | inactive: -0.067 | inactive: 0.216 | inactive: 0.106 | inactive: -0.083 | inactive: 0.357 | inactive: 0.028 |
| STK25 (UniProt O00506) | inactive: 0.037 | inactive: 0.265 | inactive: 0.235 | inactive: 0.026 | inactive: 0.059 | inactive: 0.013 | inactive: -0.027 | inactive: 0.165 | inactive: 0.032 | inactive: -0.009 | inactive: -0.024 | inactive: -0.06 | inactive: 0.051 | inactive: -0.03 | inactive: -0.043 |
| SUPT20H isoform 3 (UniProt Q8NEM7) | inactive: -0.058 | inactive: 0.062 | inactive: 0.049 | inactive: 0.155 | inactive: -0.058 | inactive: -0.395 | inactive: -0.214 | inactive: 0.275 | inactive: 0.127 | inactive: -0.063 | inactive: -0.084 | inactive: -0.225 | inactive: 0.063 | inactive: 0.105 | inactive: -0.12 |
| STX4 (UniProt Q12846) | inactive: -0.019 | inactive: 0.001 | inactive: -0.034 | inactive: -0.013 | inactive: 0.028 | inactive: 0.058 | inactive: 0.008 | inactive: 0.011 | inactive: 0.006 | inactive: 0.037 | inactive: 0.051 | inactive: 0.095 | inactive: 0.008 | inactive: 0.008 | inactive: 0.022 |
| STX6 (UniProt O43752) | inactive: 0.017 | inactive: 0.043 | inactive: 0.019 | inactive: -0.043 | inactive: 0.041 | inactive: -0.078 | inactive: -0.016 | inactive: -0.002 | inactive: -0.02 | inactive: -0.001 | inactive: 0.03 | inactive: 0.112 | inactive: -0.04 | inactive: 0.021 | inactive: -0.052 |
| SZRD1 (UniProt Q7Z422) | inactive: -0.007 | inactive: 0.029 | inactive: 0.032 | inactive: 0.04 | inactive: -0.009 | inactive: -0.084 | inactive: -0.001 | inactive: 0.001 | inactive: -0.034 | inactive: 0.019 | inactive: -0.004 | inactive: 0.034 | inactive: -0.104 | inactive: -0.011 | inactive: 0.002 |

Given with bars between the fields: part of the list above
Target | log2 fold change (nilotinib) | log2 fold change [1] | log2 fold change (dasatinib) | log2 fold change [2] | log2 fold change [3] | log2 fold change (quisinostat) | log2 fold change (tipifarnib) | log2 fold change [4] | log2 fold change [5] | log2 fold change [6] | log2 fold change [7] | log2 fold change (vorinostat) | log2 fold change (silmitasertib) | log2 fold change [8] | log2 fold change (entospletinib)
SYVN1 (UniProt Q86TM6) | inactive: -0.015 | inactive: 0.052 | inactive: 0.031 | inactive: -0.065 | inactive: -0.01 | inactive: -0.029 | inactive: -0.054 | inactive: -0.011 | inactive: -0.002 | inactive: -0.011 | inactive: -0.059 | inactive: 0.086 | inactive: 0.034 | inactive: -0.01 | inactive: -0.009
SUMF1 (UniProt Q8NBK3) | inactive: 0.064 | inactive: 0 | inactive: 0.056 | inactive: 0.001 | inactive: 0.052 | inactive: 0.054 | inactive: -0.055 | inactive: 0.06 | inactive: 0.043 | inactive: 0.001 | inactive: -0.056 | inactive: 0.026 | inactive: -0.026 | inactive: -0.037 | inactive: -0.113
